Results on 4 sequences are retold here after article PMC8910471, “The Finely Coordinated Action of SSB and NurA/HerA Complex Strictly Regulates the DNA End Resection Process in Saccharolobus solfataricus”.

For at least one entry, the source does not settle the construct or the ends of the probe. For part of these data: A weaker result is weaker than the reference pair of the same experiment. At least one verdict was read from the data and is not stated in words by the source. Protein sequences can lack the tags named with them.

In data set [1] the target is T1, HerA (Saccharolobus solfataricus) (UniProt Q97WG8).
T1 sequence (looked up, limits assumed): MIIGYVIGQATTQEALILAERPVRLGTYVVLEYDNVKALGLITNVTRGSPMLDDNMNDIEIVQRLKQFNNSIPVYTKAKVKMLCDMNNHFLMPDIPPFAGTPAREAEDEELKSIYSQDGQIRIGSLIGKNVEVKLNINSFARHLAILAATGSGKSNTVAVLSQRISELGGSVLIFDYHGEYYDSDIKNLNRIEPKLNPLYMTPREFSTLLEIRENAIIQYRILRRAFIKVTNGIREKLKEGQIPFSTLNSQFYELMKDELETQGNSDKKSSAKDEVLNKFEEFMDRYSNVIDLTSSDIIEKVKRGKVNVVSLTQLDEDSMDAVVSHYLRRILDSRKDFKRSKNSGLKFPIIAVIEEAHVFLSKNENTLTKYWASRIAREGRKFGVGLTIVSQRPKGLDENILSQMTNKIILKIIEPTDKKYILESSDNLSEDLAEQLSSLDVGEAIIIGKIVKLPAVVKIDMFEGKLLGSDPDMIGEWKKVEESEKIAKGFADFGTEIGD
The data set is described as follows: EMSA. The conditions noted are these: EMSA: 5 pmol fluorescent DNA in 10 ul, 20 mM HEPES/NaOH pH 7.5, 35 mM beta-mercaptoethanol, 500 mM NaCl, 10 min room temperature, recombinant protein, single-stranded DNA. On the technique in general: In EMSA bound probe runs differently from free probe, usually more slowly.

Data set [2] has as its target T2, NurA (Saccharolobus solfataricus) (UniProt Q97WH1).
T2 sequence (looked up, limits assumed): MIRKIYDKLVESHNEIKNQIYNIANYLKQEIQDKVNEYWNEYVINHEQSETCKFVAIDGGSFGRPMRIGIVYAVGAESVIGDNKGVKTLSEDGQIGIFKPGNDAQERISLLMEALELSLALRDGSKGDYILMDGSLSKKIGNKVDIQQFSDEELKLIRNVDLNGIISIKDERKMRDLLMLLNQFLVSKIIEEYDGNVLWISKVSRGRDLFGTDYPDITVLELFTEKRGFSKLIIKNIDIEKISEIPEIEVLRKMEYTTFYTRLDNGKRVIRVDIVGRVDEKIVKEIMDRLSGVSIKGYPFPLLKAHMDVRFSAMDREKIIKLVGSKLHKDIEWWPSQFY
As to the kind of experiment: EMSA. The conditions noted are these: NurA alone, increasing amounts; EMSA: 5 pmol fluorescent DNA in 10 ul, 20 mM HEPES/NaOH pH 7.5, 35 mM beta-mercaptoethanol, 500 mM NaCl, 10 min room …; recombinant protein; single-stranded DNA.

The mark [3] stands for this setting: in NurA/HerA with SSB: HerA binding reduced.

Take “CGTGACTTGATGTTAACCCTAACCCTAAGAATTCGGCTTAAGTGAGTGTGAGGATATCATGTACGATAGC [70 leadCy5 (70 mer)]”: the binding result in data set [1] (setting [3]) was “binds more weakly”.
“GCCGTGATCACCAATGCAGATTGACGAACCTTTGCCCACGT [40 merCy3]”: the binding result in data set [1] (setting [3]) is on record as “binds more weakly”.
Regarding GCTATCGTACATGATATCCTC [21 merTAMRA], in data set [1] (setting [3]), the binding result is reported as “binds more weakly”.
For GTTTTCCCAGTCACGAC [17 merTAMRA], the results for the binding result in data set [1] (in NurA/HerA with 1.5 pmol SSB: HerA-bound DNA reduced), in data set [1] (with SSB: HerA shift reduced) and in data set [2] were “binds more weakly”, “binds more weakly” and “binds”, respectively.
